In experiment [1] the target is human plasma kallikrein (human) (UniProt P03952). Kind of experiment: kallikrein inhibition assay of column fractions, Pro-Phe-Arg-AMC substrate.
For experiment [2], the target named is bovine trypsin (type III) (bovine) (UniProt P00760). Kind of experiment: trypsin inhibition assay of column fractions, GPK-AMC substrate.

By UniProt entry, the sequences of proteins in these tests, tags left out. Residues count along the entry.
UniProt P03952, residues 20-638: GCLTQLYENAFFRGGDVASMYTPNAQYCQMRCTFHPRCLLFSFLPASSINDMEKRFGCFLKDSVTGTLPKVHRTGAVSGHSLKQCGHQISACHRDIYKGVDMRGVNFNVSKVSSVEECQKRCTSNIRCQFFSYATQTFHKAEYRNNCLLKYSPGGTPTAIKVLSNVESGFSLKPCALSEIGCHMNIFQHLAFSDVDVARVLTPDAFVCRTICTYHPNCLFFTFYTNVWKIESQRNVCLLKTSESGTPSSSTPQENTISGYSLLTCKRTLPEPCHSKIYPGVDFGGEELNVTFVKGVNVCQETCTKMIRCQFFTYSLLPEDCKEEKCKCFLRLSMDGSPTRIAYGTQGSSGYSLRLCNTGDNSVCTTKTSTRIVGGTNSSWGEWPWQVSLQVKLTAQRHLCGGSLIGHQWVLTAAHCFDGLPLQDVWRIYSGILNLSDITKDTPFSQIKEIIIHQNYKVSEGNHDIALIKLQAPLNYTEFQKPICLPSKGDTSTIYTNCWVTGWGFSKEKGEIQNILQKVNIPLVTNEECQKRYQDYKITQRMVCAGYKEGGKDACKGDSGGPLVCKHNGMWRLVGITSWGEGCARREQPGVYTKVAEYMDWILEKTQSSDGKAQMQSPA
UniProt P00760, residues 24-246: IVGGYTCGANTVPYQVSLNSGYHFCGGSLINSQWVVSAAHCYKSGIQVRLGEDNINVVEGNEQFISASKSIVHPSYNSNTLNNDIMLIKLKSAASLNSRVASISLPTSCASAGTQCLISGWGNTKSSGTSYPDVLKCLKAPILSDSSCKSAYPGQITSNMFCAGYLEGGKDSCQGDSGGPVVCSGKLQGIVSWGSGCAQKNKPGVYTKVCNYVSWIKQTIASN

Results are given in words; binding and its absence hold for the method and conditions named. Some entries that bind do so weakly or less than the wild type.

This passage reports binding results from patent publication EP1752538A1.

B1: native human placental bikunin isolated from human placenta (protein)
chain: ADRERSIHDFCLVSKVVGRCRASMPRWWYNVTDGSCQLFVYGGCDGNSNNYLTKEECLKKCATVTENATGDLATSRNAADSSVPSAPRRQDSEDHSSDMFNYEEYCTANAVTGPCRASFPRWYFDVERNSCNNFIYGGCRGNKNSYRSEEACMLRCFRQQENPPLPLGSKVVVLAGAVS
modifications: asparagine 30 silent in sequencing, likely glycosylated
As for B1, the binding result in experiment [1] and in experiment [2] was “binds” each time.
